Results: article doi:10.1101/2025.07.23.666473

Target: TurboID-hFGF13VY (human)
Experiment: proximity labelling

binding	Binder
binds	cavin-4 (protein, UniProt A2AMM0 1-362) MEHNGSASNAGKIHQNRLSSVTEDEDQDAALTIVTVLDRVASVVDSVQASQKRIEERHREMGNAIKSVQIDLLKLSQSHSNTGYVVNKLFEKTRKVSAHIKDVKARVEKQQVRVTKVETKQEEIMKKNKFRVVIFQEDIPCPASLSVVKDRSLPENQEEAEEVFDPPIELSSDEEYYVEESRSARLRKSGKEHIDHIKKAFSRENMQKTRQTLDKKVSGIRTRIVTPERRERLRQSGERLRQSGERLRQSGERFKKSISSAAPSKEAFKIRSLRKAKDPKAEGQEVDRGMGVDIISGSLALGPIHEFHSDEFSETEKEVTKGGYSPQEGGDPPTPEPLKVTFKPQVRVEDDESLLLELKQSS
binds	cavin-2 (protein, UniProt Q63918 1-418) MGEDAAQAEKFQHPNTDMLQEKPSSPSPMPSSTPSPSLNLGSTEEAIRDNSQVNAVTVHTLLDKLVNMLDAVRENQHNMEQRQINLEGSVKGIQNDLTKLSKYQASTSNTVSKLLEKSRKVSAHTRAVRERLERQCVQVKRLENNHAQLLRRNHFKVLIFQEESEIPASVFVKEPVPSAAEGKEELADENKSLEETLHNVDLSSDDELPRDEEALEDSAEEKMEESRAEKIKRSSLKKVDSLKKAFSRQNIEKKMNKLGTKIVSVERREKIKKSLTPNHQKASSGKSSPFKVSPLSFGRKKVREGESSVENETKLEDQMQEDREEGSFTEGLSEASLPSGLMEGSAEDAEKSARRGNNSAVGSNADLTIEEDEEEEPVALQQAQQVRYESGYMLNSEEMEEPSEKQVQPAVLHVDQTA
binds	HDAC6 (enzyme, UniProt Q9Z2V5 1-1149) MTSTGQDSSTRQRKSRHNPQSPLQESSATLKRGGKKCAVPHSSPNLAEVKKKGKMKKLSQPAEEDLVVGLQGLDLNPETRVPVGTGLVFDEQLNDFHCLWDDSFPESPERLHAIREQLILEGLLGRCVSFQARFAEKEELMLVHSLEYIDLMETTQYMNEGELRVLAETYDSVYLHPNSYSCACLATGSVLRLVDALMGAEIRNGMAVIRPPGHHAQHNLMDGYCMFNHLAVAARYAQKKHRIQRVLIVDWDVHHGQGTQFIFDQDPSVLYFSIHRYEHGRFWPHLKASNWSTIGFGQGQGYTINVPWNQTGMRDADYIAAFLHILLPVASEFQPQLVLVAAGFDALHGDPKGEMAATPAGFAHLTHLLMGLAGGKLILSLEGGYNLRALAKGVSASLHTLLGDPCPMLESCVVPCASAQTSIYCTLEALEPFWEVLERSVETQEEDEVEEAVLEEEEEEGGWEATALPMDTWPLLQNRTGLVYDEKMMSHCNLWDNHHPETPQRILRIMCHLEEVGLAARCLILPARPALDSELLTCHSAEYVEHLRTTEKMKTRDLHREGANFDSIYICPSTFACAKLATGAACRLVEAVLSGEVLNGIAVVRPPGHHAEPNAACGFCFFNSVAVAARHAQIIAGRALRILIVDWDVHHGNGTQHIFEDDPSVLYVSLHRYDRGTFFPMGDEGASSQVGRDAGIGFTVNVPWNGPRMGDADYLAAWHRLVLPIAYEFNPELVLISAGFDAAQGDPLGGCQVTPEGYAHLTHLLMGLAGGRIILILEGGYNLASISESMAACTHSLLGDPPPQLTLLRPPQSGALVSISEVIQVHRKYWRSLRLMKMEDKEECSSSRLVIKKLPPTASPVSAKEMTTPKGKVPEESVRKTIAALPGKESTLGQAKSKMAKAVLAQGQSSEQAAKGTTLDLATSKETVGGATTDLWASAAAPENFPNQTTSVEALGETEPTPPASHTNKQTTGASPLQGVTAQQSLQLGVLSTLELSREAEEAHDSEEGLLGEAAGGQDMNSLMLTQGFGDFNTQDVFYAVTPLSWCPHLMAVCPIPAAGLDVSQPCKTCGTVQENWVCLTCYQVYCSRYVNAHMVCHHEASEHPLVLSCVDLSTWCYVCQAYVHHEDLQDVKNAAHQNKFGEDMPHSH

Results are given in words; binding and its absence hold for the method and conditions named. In cells and extracts the contact can be indirect. These calls come from enrichment with a bait or labelling near it, and not all partners need be listed.
